“And” between values parts separate entries of the source, which are not always exact repeats. Identical values can stand only once. Like-named read-outs stand apart in the source and are kept apart here. Some of these results come from one statement about several compounds together.
Key:
rice blast = format: cell-based; conditions: in vitro
cucumber downy mildew = assay: Protectant activity in vivo (whole plant) against cucumber downy mildew
Protocol: The method is as followed: The whole plant is used in this test. The compound is dissolved in a proper solvent to get mother solution. The proper solvent is selected from acetone, methanol, DMF and so on according to their dissolving capability to the sample. The volume rate of solvent and testing solution (v/v) is equal to or less than 5%. The mother solution is diluted with water containing 0.1% tween-80 to get the testing solution whose concentration is designed. The testing solution is sprayed to the host plant by a special plant sprayer. The plant is inoculated with fungus after 24 hours. According to the infecting characteristic of fungus, the plant is stored in a humidity chamber and then transferred into greenhouse after infection is finished. And the other plants are placed in greenhouse directly. The activity of compound is obtained by eyeballing after 7 days in common.

cucumber gray mold = assay: Activity in vitro (96-well, High Through Put): inhibition rate against cucumber gray mold; format: cell-based
Protocol: The method is as followed: High Through Put is used in the test. The compound is dissolved in a proper solvent to become a testing solution whose concentration is designed. The solvent is selected from acetone, methanol, DMF and so on according to their dissolving capability to the sample. In a no animalcule condition, the testing solution and pathogens suspension are added into the cells of 96 cells culture board, which then should be placed in the constant temperature box. 24 hours later, pathogen germination or growth can be investigated by eyeballing, and the activity in vitro of the compound is evaluated based on germination or growth of control treatment.

Row | SMILES | inhibition rate against rice blast (rice blast; dose 0.9 mg/L) [%] | inhibition rate against rice blast (rice blast; dose 2.8 mg/L) [%] | inhibition rate against rice blast (rice blast; dose 8.3 mg/L) [%] | inhibition rate against rice blast (rice blast; dose 25 mg/L) | protectant activity against cucumber downy mildew in vivo (cucumber downy mildew; dose 400 mg/L) | inhibition rate against cucumber gray mold (cucumber gray mold; dose 25 mg/L) [%] | also measured
1 | N#Cc1c(Cl)c(Cl)c(Nc2cc(C(F)(F)F)ccc2Cl)c(Cl)c1C#N [Compound A-19] | 80 | 100 | 100 | 100% | – | – | protectant activity against cucumber downy mildew in vivo (cucumber downy mildew; dose 100 mg/L): no less than 80%
2 | N#Cc1c(F)c(F)c(C#N)c(Nc2c(Cl)cc([N+](=O)[O-])cc2Cl)c1F [Compound C-93] | 100 | 100 | 100 | 100% | – | – | protectant activity against cucumber downy mildew in vivo (cucumber downy mildew; dose 100 mg/L): more than 95%
3 | N#Cc1c(F)c(F)c(C#N)c(Nc2ccc(Br)cn2)c1F [Compound C-108] | – | – | – | – | no less than 80% | – | –
4 | CC(C)(C)c1ccc(Nc2c(Cl)c(Cl)c(C#N)c(C#N)c2Cl)cc1 [Compound A-8] | – | – | – | – | more than 90% | – | –
5 | N#Cc1c(Cl)c(Cl)c(C#N)c(Nc2ccc(Cl)c(C(F)(F)F)c2)c1Cl [Compound C-39] | 100 | 100 | 100 | 100% | more than 90% | – | –
6 | N#Cc1c(Cl)c(Cl)c(Nc2ccc(Br)nc2)c(C#N)c1Cl [Compound B-132] | – | – | 100 | 100% | no less than 80% | – | –
7 | CC(C)(C)c1ccc(Nc2c(Cl)c(C#N)c(Cl)c(Cl)c2C#N)cc1 [Compound C-9] | – | – | – | – | no less than 80% | – | –
8 | CNC(=O)c1cc(C#N)cc(C)c1Nc1c(Cl)c(Cl)c(C#N)c(C#N)c1Cl [Compound A-50] | – | – | – | 100% and 80% | no less than 80% | – | –
9 | COC(=O)c1cccc(C)c1Nc1c(Cl)c(Cl)c(C#N)c(C#N)c1Cl [Compound A-21] | – | – | – | – | more than 90% | – | protectant activity against cucumber downy mildew in vivo (cucumber downy mildew; dose 50 mg/L): more than 80%
10 | N#Cc1cc(C#N)c(Nc2c(Cl)c(C#N)c(Cl)c(Cl)c2C#N)nc1Cl [Compound C-114] | – | – | – | 80% | no less than 80% | – | –
11 | Cc1ccc(C)c(Nc2c(Cl)c(Cl)c(C#N)c(Cl)c2C#N)c1 [Compound B-26] | – | – | – | – | more than 90% | – | –
12 | N#Cc1c(Cl)c(Cl)c(Nc2ccncc2Br)c(C#N)c1Cl [Compound B-138] | – | 100 | 100 | 100% | more than 90% | – | protectant activity against cucumber downy mildew in vivo (cucumber downy mildew; dose 100 mg/L): more than 95%
13 | COc1cc(OC)nc(Nc2c(Cl)c(Cl)c(C#N)c(C#N)c2Cl)n1 [Compound A-90] | – | – | – | 100% | more than 90% | – | –
14 | N#Cc1c(Cl)c(Cl)c(Nc2ccc(C(F)(F)F)cc2Cl)c(Cl)c1C#N [Compound A-17] | 100 | 100 | 100 | 100% | – | – | inhibition rate against rice blast (rice blast; dose 0.3 mg/L): 100%; protectant activity against cucumber downy mildew in vivo (cucumber downy mildew; dose 50 mg/L): more than 80%; protectant activity against cucumber downy mildew in vivo (cucumber downy mildew; dose 100 mg/L): more than 95%
15 | N#Cc1c(F)c(F)c(C#N)c(Nc2cc([N+](=O)[O-])ccc2Cl)c1F [Compound C-81] | 80 | 100 | 100 | 100% | – | – | protectant activity against cucumber downy mildew in vivo (cucumber downy mildew; dose 100 mg/L): more than 95%
16 | N#Cc1c(Cl)c(Cl)c(Nc2c(Cl)cc([N+](=O)[O-])cc2Br)c(C#N)c1Cl [Compound B-55] | – | 100 | 100 | 100% | – | 100 | inhibition rate against cucumber gray mold (cucumber gray mold; dose 2.8 mg/L): 80%; inhibition rate against cucumber gray mold (cucumber gray mold; dose 8.3 mg/L): 100%
17 | CNC(=O)c1cc(Cl)cc(C)c1Nc1c(Cl)c(Cl)c(C#N)c(Cl)c1C#N [Compound B-62b] | – | – | – | 80% | – | 100 | –

Row | SMILES | inhibition rate against rice blast (rice blast; dose 0.9 mg/L) [%] | inhibition rate against rice blast (rice blast; dose 2.8 mg/L) [%] | inhibition rate against rice blast (rice blast; dose 8.3 mg/L) [%] | inhibition rate against rice blast (rice blast; dose 25 mg/L) | protectant activity against cucumber downy mildew in vivo (cucumber downy mildew; dose 400 mg/L) | inhibition rate against cucumber gray mold (cucumber gray mold; dose 25 mg/L) [%] | also measured
18 | N#Cc1c(F)c(F)c(C#N)c(Nc2c(Cl)cc(C(F)(F)F)cc2Cl)c1F [Compound C-98] | 100 | 100 | 100 | 100% | – | 100 | inhibition rate against cucumber gray mold (cucumber gray mold; dose 2.8 mg/L): 80%
19 | N#Cc1c(Cl)c(Cl)c(C#N)c(Nc2ccc([N+](=O)[O-])cc2F)c1Cl [Compound C-27] | 100 | 100 | 100 | 100% | – | 100 | inhibition rate against rice blast (rice blast; dose 0.3 mg/L): 100%; inhibition rate against cucumber gray mold (cucumber gray mold; dose 2.8 mg/L): 100%; inhibition rate against cucumber gray mold (cucumber gray mold; dose 8.3 mg/L): 100%
20 | N#Cc1c(Cl)c(Cl)c(C#N)c(Nc2c(F)cc([N+](=O)[O-])cc2Cl)c1Cl [Compound C-46] | 100 | 100 | 100 | 100% | – | 100 | inhibition rate against rice blast (rice blast; dose 0.3 mg/L): 100%; inhibition rate against cucumber gray mold (cucumber gray mold; dose 0.3 mg/L): 100%; inhibition rate against cucumber gray mold (cucumber gray mold; dose 0.9 mg/L): 100%; inhibition rate against cucumber gray mold (cucumber gray mold; dose 2.8 mg/L): 100%; inhibition rate against cucumber gray mold (cucumber gray mold; dose 8.3 mg/L): 100%
21 | N#Cc1c(Cl)c(Cl)c(C#N)c(Nc2ccc([N+](=O)[O-])cc2[N+](=O)[O-])c1Cl [Compound C-23] | – | – | – | 100% | – | 100 | –
22 | N#Cc1cc([N+](=O)[O-])ccc1Nc1c(Cl)c(Cl)c(C#N)c(Cl)c1C#N [Compound B-38] | – | – | – | 100% | – | 100 | –
23 | CC(C)(C)c1ccc(Nc2c(F)c(C#N)c(F)c(F)c2C#N)cc1 [Compound C-69] | – | – | – | – | no less than 80% | – | –
24 | N#Cc1cc([N+](=O)[O-])cc(Br)c1Nc1c(Cl)c(C#N)c(Cl)c(Cl)c1C#N [Compound C-48] | 80 | 100 | 100 | 100% | – | 80 | –
25 | N#Cc1c(Cl)c(Cl)c(Nc2ccc(C(F)(F)F)cc2Cl)c(C#N)c1Cl [Compound B-28] | 100 | 100 | 100 | 100% | – | 80 | inhibition rate against rice blast (rice blast; dose 0.3 mg/L): 100%
26 | CC(C)(C)c1ccc(Nc2c(Cl)c(Cl)c(C#N)c(Cl)c2C#N)cc1 [Compound B-9] | – | – | – | – | no less than 80% | – | –
27 | N#Cc1c(Cl)c(Cl)c(Nc2c(Cl)cc(C(=O)Nc3ccccc3)cc2Cl)c(C#N)c1Cl [Compound B-63] | – | – | – | – | more than 90% | – | –
28 | CN(C)c1c(Cl)c(Nc2c(Cl)cc([N+](=O)[O-])cc2Cl)c(C#N)c(Cl)c1C#N [Compound B-73] | 100 | 100 | 100 | 100% | – | 100 | –
29 | N#Cc1c(Cl)c(Cl)c(Nc2cc(Cl)cnc2Cl)c(Cl)c1C#N [Compound A-85] | – | 100 | 100 | 100% | – | 100 | –
30 | N#Cc1c(F)c(F)c(C#N)c(Nc2ccc(Cl)cc2Cl)c1F [Compound C-71] | 80 | 100 | 100 | 100% | – | 100 | inhibition rate against cucumber gray mold (cucumber gray mold; dose 2.8 mg/L): 100%; inhibition rate against cucumber gray mold (cucumber gray mold; dose 8.3 mg/L): 100%
31 | COC(=O)c1ccc(Nc2c(Cl)c(Cl)c(C#N)c(Cl)c2C#N)cc1 [Compound B-13] | – | 100 | 100 | 100% | – | 100 | –
32 | N#Cc1c(Cl)c(Cl)c(Nc2ccc(F)c(F)c2F)c(Cl)c1C#N [Compound A-41] | – | – | – | – | – | – | protectant activity against cucumber downy mildew in vivo (cucumber downy mildew; dose 50 mg/L): more than 80%; protectant activity against cucumber downy mildew in vivo (cucumber downy mildew; dose 100 mg/L): more than 95%
33 | Cc1c(Cl)c([N+](=O)[O-])cc([N+](=O)[O-])c1Nc1c(Cl)c(Cl)c(C#N)c(Cl)c1C#N [Compound B-68] | 100 | 100 | 100 | 100% | – | 100 | inhibition rate against rice blast (rice blast; dose 0.3 mg/L): 100%; inhibition rate against cucumber gray mold (cucumber gray mold; dose 2.8 mg/L): 100%; inhibition rate against cucumber gray mold (cucumber gray mold; dose 8.3 mg/L): 100%

Source: patent US8937072B2, “Substituted cyanoaniline compounds, preparation and use thereof” (Sinochem Corporation, priority 2011, dated 2015)
